Measurements from PMC12819141, “RNase MRP subunit composition and role in 40S ribosome biogenesis” (Nature Structural & Molecular Biology, 2025).

Tests used:
Experiment in all cases: affinity purification with mass spectrometry; label-free IP–MS; C-terminally GFP-tagged bait from HeLa lysate on Protein A beads coupled to rabbit anti-GFP antibody, 2 h at 4 °C; polysome lysis buffer (20 mM Hepes pH 7.5, 100 mM KCl, 5 mM MgCl2, 1% Triton X-100) with 1% CHAPS; compared with control GFP
RPP21–GFP (human) = biological target: T1, RPP21–GFP (human) (UniProt Q9H633)
T1 sequence: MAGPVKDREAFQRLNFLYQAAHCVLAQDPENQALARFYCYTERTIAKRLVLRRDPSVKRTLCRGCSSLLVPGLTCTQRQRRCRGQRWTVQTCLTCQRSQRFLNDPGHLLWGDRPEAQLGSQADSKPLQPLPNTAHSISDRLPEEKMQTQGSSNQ

NEPRO–GFP (human) = biological target: T2, NEPRO–GFP (human) (UniProt Q6NW34)
T2 sequence: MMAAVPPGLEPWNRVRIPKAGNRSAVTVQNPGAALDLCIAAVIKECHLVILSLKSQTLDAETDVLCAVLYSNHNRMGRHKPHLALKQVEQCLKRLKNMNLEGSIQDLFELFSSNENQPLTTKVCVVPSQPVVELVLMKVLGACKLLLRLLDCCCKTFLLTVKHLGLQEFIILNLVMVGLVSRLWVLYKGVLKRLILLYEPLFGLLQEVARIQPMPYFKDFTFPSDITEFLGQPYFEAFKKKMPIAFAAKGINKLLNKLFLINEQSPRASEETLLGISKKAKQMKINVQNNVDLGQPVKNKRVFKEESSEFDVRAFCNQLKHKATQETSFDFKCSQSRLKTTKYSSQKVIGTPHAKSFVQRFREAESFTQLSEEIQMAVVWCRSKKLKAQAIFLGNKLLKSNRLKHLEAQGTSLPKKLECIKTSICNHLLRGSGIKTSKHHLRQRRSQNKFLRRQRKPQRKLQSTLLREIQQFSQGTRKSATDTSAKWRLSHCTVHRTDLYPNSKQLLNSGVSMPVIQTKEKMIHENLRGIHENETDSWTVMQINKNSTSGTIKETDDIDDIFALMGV

C18orf21–GFP (human) = biological target: T3, C18orf21–GFP (human) (UniProt Q32NC0)
T3 sequence: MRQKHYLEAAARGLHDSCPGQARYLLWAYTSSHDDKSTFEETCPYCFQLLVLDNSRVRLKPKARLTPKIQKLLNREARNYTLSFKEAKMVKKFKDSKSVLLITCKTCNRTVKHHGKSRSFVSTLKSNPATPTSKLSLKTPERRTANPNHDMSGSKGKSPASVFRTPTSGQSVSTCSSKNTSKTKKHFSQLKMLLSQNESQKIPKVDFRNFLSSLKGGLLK

RPP14–GFP (human) = biological target: T4, RPP14–GFP (human) (UniProt O95059)
T4 sequence: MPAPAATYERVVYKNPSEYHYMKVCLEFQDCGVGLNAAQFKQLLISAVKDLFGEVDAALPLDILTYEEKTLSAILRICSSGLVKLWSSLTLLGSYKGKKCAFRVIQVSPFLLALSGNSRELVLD

- binding (RPP21–GFP (human)): binds
- binding (NEPRO–GFP (human)): binds
- binding (C18orf21–GFP (human)): binds
- binding (RPP14–GFP (human)): binds
B1: RPP40 (protein, UniProt O75818 1-363)
chain: MATLRRLREAPRHLLVCEKSNFGNHKSRHRHLVQTHYYNYRVSFLIPECGILSEELKNLVMNTGPYYFVKNLPLHELITPEFISTFIKKGSCYALTYNTHIDEDNTVALLPNGKLILSLDKDTYEETGLQGHPSQFSGRKIMKFIVSIDLMELSLNLDSKKYERISWSFKEKKPLKFDFLLAWHKTGSEESTMMSYFSKYQIQEHQPKVALSTLRDLQCPVLQSSELEGTPEVSCRALELFDWLGAVFSNVDLNNEPNNFISTYCCPEPSTVVAKAYLCTITGFILPEKICLLLEHLCHYFDEPKLAPWVTLSVQGFADSPVSWEKNEHGFRKGGEHLYNFVIFNNQDYWLQMAVGANDHCPP

These are yes or no findings as the source states them, for the method shown. Binding seen in cells or lysates may run through a third protein. These calls come from enrichment with a bait or labelling near it, and not all partners need be listed. Sequences can lack the tags named with a protein.
